From the supplement of paper PMC6411743
± gives the standard deviation of the averaged measurements. This is one part of the list.

Protein sequences, listed by entry. Tags and fused reporters are not part of them. Lines headed by an entry give the natural chain unless they say otherwise; changes in a name come on top.
UniProt P36543, whole entry: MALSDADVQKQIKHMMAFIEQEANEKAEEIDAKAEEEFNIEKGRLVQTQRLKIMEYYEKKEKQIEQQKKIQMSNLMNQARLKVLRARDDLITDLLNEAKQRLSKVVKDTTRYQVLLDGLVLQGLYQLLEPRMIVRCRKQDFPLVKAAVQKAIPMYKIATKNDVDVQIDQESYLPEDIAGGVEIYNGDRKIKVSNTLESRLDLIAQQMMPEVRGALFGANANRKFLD
UniProt P28066: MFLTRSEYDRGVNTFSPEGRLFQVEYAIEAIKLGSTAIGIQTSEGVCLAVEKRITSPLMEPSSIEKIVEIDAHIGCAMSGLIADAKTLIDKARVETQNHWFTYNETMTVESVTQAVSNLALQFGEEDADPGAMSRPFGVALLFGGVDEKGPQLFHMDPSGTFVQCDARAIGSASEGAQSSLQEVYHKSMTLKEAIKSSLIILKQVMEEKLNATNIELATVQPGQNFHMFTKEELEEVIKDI
UniProt P40818: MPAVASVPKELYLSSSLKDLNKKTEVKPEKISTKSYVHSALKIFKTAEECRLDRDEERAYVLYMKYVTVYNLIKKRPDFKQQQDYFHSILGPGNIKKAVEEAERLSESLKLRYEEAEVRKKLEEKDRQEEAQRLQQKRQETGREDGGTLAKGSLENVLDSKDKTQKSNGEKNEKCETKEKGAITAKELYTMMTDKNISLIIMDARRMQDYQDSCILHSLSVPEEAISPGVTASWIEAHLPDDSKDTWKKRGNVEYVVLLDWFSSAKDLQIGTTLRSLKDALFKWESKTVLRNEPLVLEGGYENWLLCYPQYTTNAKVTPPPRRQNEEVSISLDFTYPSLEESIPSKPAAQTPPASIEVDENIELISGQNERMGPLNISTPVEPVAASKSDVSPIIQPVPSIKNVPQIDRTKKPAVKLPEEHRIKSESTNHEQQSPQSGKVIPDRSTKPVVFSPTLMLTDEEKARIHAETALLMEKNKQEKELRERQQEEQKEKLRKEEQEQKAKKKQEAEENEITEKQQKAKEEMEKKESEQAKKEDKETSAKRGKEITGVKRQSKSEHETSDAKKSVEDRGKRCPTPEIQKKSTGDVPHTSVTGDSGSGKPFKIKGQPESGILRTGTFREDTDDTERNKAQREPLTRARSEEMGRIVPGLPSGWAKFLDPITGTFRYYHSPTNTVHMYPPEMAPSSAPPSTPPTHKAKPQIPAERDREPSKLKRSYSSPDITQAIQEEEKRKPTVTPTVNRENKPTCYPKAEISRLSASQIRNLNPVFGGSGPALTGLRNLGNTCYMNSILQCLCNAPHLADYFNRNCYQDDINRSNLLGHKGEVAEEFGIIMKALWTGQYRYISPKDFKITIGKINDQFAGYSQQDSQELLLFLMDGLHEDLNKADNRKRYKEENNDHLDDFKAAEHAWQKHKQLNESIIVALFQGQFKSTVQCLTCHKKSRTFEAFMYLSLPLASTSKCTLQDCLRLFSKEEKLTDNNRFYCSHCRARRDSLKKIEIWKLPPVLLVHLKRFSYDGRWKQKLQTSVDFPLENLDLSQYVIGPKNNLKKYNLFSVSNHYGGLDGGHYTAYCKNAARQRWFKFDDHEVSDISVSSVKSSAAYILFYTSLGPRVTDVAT
UniProt P40939: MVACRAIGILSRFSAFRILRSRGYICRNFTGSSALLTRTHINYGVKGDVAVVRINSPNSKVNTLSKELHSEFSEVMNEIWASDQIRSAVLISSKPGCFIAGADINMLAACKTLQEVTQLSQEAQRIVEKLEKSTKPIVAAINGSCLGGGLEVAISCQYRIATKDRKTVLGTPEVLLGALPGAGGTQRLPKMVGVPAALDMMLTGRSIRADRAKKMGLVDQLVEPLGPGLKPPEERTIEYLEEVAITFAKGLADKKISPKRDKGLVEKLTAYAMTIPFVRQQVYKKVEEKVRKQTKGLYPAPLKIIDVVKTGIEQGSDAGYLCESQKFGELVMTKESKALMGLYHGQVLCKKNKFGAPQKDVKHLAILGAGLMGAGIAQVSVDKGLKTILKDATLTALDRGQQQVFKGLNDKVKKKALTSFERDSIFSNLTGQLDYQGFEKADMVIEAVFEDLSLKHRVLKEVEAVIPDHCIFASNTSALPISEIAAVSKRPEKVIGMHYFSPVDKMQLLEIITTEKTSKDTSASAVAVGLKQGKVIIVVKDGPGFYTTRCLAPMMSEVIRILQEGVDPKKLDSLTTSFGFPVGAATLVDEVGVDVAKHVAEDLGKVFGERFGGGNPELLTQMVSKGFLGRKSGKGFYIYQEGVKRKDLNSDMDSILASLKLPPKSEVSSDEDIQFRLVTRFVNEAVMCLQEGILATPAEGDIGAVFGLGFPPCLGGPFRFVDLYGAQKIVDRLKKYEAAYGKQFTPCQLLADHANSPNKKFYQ

Compound: Nc1nc2c(ncn2[C@@H]2O[C@H](COP(=O)(O)OP(=O)(O)OP(=O)(O)O)[C@@H](O)[C@H]2O)c(=O)[nH]1 [guanosine triphosphate]
Assay: NP40-soluble protein abundance relative to vehicle (solubility fold change) (ratio); higher = more soluble protein in presence of GTP
Method: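 Solubility proteome profiling in Jurkat crude lysate. Lysate was treated with Mg-GTP (0.1-10 mM) for 10 min at room temperature and 3 min at 37 °C, then solubilised with 0.8% NP40 and benzonase, followed by ultracentrifugation. Proteins were quantified by TMT10 LC-MS/MS; the value is the NP40-soluble abundance relative to the NP40-processed vehicle, from 3 independent experiments.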

ATP6V1E1 (UniProt P36543)
NP40-soluble protein abundance (concentration: 0.1mM): 0.91 ± 0.033
NP40-soluble protein abundance (concentration: 0.5mM): 0.885 ± 0.022
NP40-soluble protein abundance (concentration: 1mM): 1.02 ± 0.057
NP40-soluble protein abundance (concentration: 2mM): 1.01 ± 0.044
NP40-soluble protein abundance (concentration: 4mM): 1.01 ± 0.056
NP40-soluble protein abundance (concentration: 6mM): 1.01 ± 0.056
NP40-soluble protein abundance (concentration: 8mM): 0.933 ± 0.059
NP40-soluble protein abundance (concentration: 10mM): 0.982 ± 0.083

UniProt P28066 and related entries
NP40-soluble protein abundance (concentration: 0.1mM): 0.937 ± 0.079
NP40-soluble protein abundance (concentration: 0.5mM): 0.965 ± 0.037
NP40-soluble protein abundance (concentration: 1mM): 0.987 ± 0.073
NP40-soluble protein abundance (concentration: 2mM): 1.04 ± 0.12
NP40-soluble protein abundance (concentration: 4mM): 1.02 ± 0.14
NP40-soluble protein abundance (concentration: 6mM): 1.04 ± 0.14
NP40-soluble protein abundance (concentration: 8mM): 1.01 ± 0.096
NP40-soluble protein abundance (concentration: 10mM): 1 ± 0.14

RPL34 (UniProt P49207)
NP40-soluble protein abundance (concentration: 0.1mM): 0.87 ± 0.083
NP40-soluble protein abundance (concentration: 0.5mM): 0.87 ± 0.081
NP40-soluble protein abundance (concentration: 1mM): 1.01 ± 0.17
NP40-soluble protein abundance (concentration: 2mM): 0.923 ± 0.17
NP40-soluble protein abundance (concentration: 4mM): 0.851 ± 0.22
NP40-soluble protein abundance (concentration: 6mM): 0.822 ± 0.21
NP40-soluble protein abundance (concentration: 8mM): 0.581 ± 0.16
NP40-soluble protein abundance (concentration: 10mM): 0.812 ± 0.23

USP8 (UniProt P40818)
NP40-soluble protein abundance (concentration: 0.1mM): 1.02 ± 0.039
NP40-soluble protein abundance (concentration: 0.5mM): 1 ± 0.049
NP40-soluble protein abundance (concentration: 1mM): 0.984 ± 0.048
NP40-soluble protein abundance (concentration: 2mM): 0.949 ± 0.059
NP40-soluble protein abundance (concentration: 4mM): 0.961 ± 0.053
NP40-soluble protein abundance (concentration: 6mM): 0.953 ± 0.044
NP40-soluble protein abundance (concentration: 8mM): 1.01 ± 0.063
NP40-soluble protein abundance (concentration: 10mM): 0.94 ± 0.065

HADHA (UniProt P40939)
NP40-soluble protein abundance (concentration: 0.1mM): 1 ± 0.026
NP40-soluble protein abundance (concentration: 0.5mM): 1.04 ± 0.053
NP40-soluble protein abundance (concentration: 1mM): 0.967 ± 0.039
NP40-soluble protein abundance (concentration: 2mM): 0.975 ± 0.073
NP40-soluble protein abundance (concentration: 4mM): 0.977 ± 0.077
NP40-soluble protein abundance (concentration: 6mM): 0.977 ± 0.1
NP40-soluble protein abundance (concentration: 8mM): 0.955 ± 0.057
NP40-soluble protein abundance (concentration: 10mM): 0.928 ± 0.049
